In publication PMC10342119, “ABF1 Positively Regulates Rice Chilling Tolerance via Inducing Trehalose Biosynthesis” (International Journal of Molecular Sciences, 2023):

Target: T1, GST-ABF1 (Oryza sativa L. ssp. japonica cv Nipponbare) (UniProt Q0JHF1)
T1 sequence (looked up): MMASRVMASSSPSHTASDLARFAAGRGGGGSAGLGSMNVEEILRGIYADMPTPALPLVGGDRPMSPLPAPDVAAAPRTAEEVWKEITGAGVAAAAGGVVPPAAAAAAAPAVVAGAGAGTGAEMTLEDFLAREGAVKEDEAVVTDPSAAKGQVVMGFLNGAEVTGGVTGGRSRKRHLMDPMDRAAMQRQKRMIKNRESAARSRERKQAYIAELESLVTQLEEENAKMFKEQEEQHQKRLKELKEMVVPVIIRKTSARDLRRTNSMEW
Assay: EMSA
Settings: EMSA/gel-shift binding buffer (composition, pH and temperature not stated); 20 fmol biotin-labeled probe; 6% acrylamide gel; recombinant protein; residues …; protein details: N-terminal GST (pGEX-4T-1); label: biotin

Sequence | binding result
CGATCGAGGTCGTCGCGGCGGTGTACTACGTGGTAATAAATCAGTGTCAAAGCATGGGG (double strand) [TPP5 promoter probe] | no binding
GAGGGTGTCTAACGTAACTTCCCACCTGACGTGGTTACTAACATGTGAGCCTGAGGGTG (double strand) [TPP6 promoter probe] | no binding
CGTGGCTGTGCATGTCGCCTGTCATGTACCCACGTCGCCCCAGAGAAAAAGTTGGGCAA (double strand) [TPS9 promoter probe] | no binding
GCGGCAGACAGCTTGAGGACGGCCCACGTGGCCTCGATGAGTCAACCATGCAATTAATG (double strand) [TPS5 promoter probe] | no binding

A negative result means that nothing was seen under these conditions. At least one verdict rests on a figure or table, not on a statement of the authors. Where a protein sequence is shown, tags need not be part of it.
